# Source: patent US20160366888A1, “ENVIRONMENTALLY FRIENDLY FORMULATIONS FOR BI-COMPONENT HETEROCYCLIC SCHIFF BASE TEXTILE FINISHES” (Government of the United States as Represented by the …, priority 2013, published 2016)
# Several values for one entry are separate records, joined by “and”; a condition that tells them apart may be missing. Identical values can stand only once. At least one compound was matched to its structure with a doubt left.
# Key:
# Assay in all cases: Antimicrobial activity (zone of inhibition) of treated cotton fabric
# Type in all cases: cell-based
# E. coli = tested on: E. coli
# P. fluorescens = tested on: P. fluorescens
# S. aureus = tested on: S. aureus; design: key to the marks not given beside the values; settings: one grade per plate
# Source text: (§1) Each aqueous solution prepared and applied to cotton fabric and tested for antimicrobial activity.
# (§2) In Table 2, below, “5+” represents a zone of inhibition ranging 41 mm to 50 mm; “4+” represents a zone of 31 mm to 40 mm; “3+” represents a zone of 21 mm to 30 mm; “2+” represents a zone of 11 mm to 20 mm; “1+” represents a zone of 1 mm to 10 mm; and “−” represents no antimicrobial activity noted.
# (§3) The American Association of Textile Chemists and Colorists (AATCC) test method 147, Antibacterial Assessment of Textile Materials was used to qualitatively test the biocidal efficacy of pretreatment solutions according to an embodiment of the present invention. Test material was aseptically transferred directly onto the surface of an inoculated nutrient agar slurry. After a specified incubation contact time, the test material was removed and any growth, or lack thereof, beneath the test material surface is recorded.
# B. subtilis = tested on: B. subtilis; design: zone of inhibition grade, B. subtilis: key to the marks not given beside the values
# Source text: as §1, §2, §3
# [1] = aqueous solution applied to cotton fabric, three plates, two readings per plate
# [2] = treated cotton fabric, one grade per plate
structure (smiles),measurement,setting,value
"O=c1[nH]sc2ccccc12 [BIT, 1,2-benzisothiazolin-3-one]","zone of inhibition, E. coli",E. coli; [1],"9, 10 mm zone and 12, 7 mm zone and 8, 12 mm zone"
same,"zone of inhibition grade, E. coli",E. coli; [2],+
same,"zone of inhibition, P. fluorescens",P. fluorescens; [1],"9, 10 mm zone and 11, 9 mm zone and 7, 12 mm zone"
same,"zone of inhibition grade, P. fluorescens",P. fluorescens; [2],+
same,"zone of inhibition grade, S. aureus",S. aureus,++++
same,"zone of inhibition, B. subtilis",B. subtilis; [1],"24, 27 mm zone and 22, 24 mm zone and 23, 25 mm zone"
same,"zone of inhibition grade, B. subtilis",B. subtilis; [2],++
